# Data from PubChem BioAssay AID540256 (National Center for Advancing Translational Sciences (NCATS), 2011).
# The whole screen tested about 300,000 compounds, of which about 3,700 (1.2%) were called active. The inconclusive results got no clear call from the source; some entries with a clear call stand among them for comparison. The call rests on the fitted dose curve; tested in HEK293 cells. Potencies beside an inconclusive call are fits to weak or partial responses and may not hold up.
# Experiment: qHTS for Inhibitors of binding or entry into cells for Lassa Virus; further: nearly all actives have a fitted effect of over 50% in size
# Settings: Lassa virus pseudotype entry inhibition, cell reporter; series mostly up to 37.9 µM
# Potency means the concentration at half of the fitted maximal effect.
row,Structure (SMILES),Potency
1,O=C(CCC1CCCN(C(=O)C2(c3ccccc3)CC2)C1)N1CCN(c2ccccn2)CC1 (stereo not drawn),"inconclusive: 7.94 µM [inhibitor, partial curve, poor fit]"
2,O=C(c1ccc(-c2cccc(C(F)(F)F)c2)o1)N1CCN(c2ccccc2O)CC1,"inconclusive: 25.1 µM [inhibitor, partial curve, poor fit]"
3,NNC(=O)/C(=N/Nc1ccccc1)S(=O)(=O)c1ccc(Cl)cc1,active: 16.4 µM
4,COc1ccccc1OCC(=O)N/N=C/C=C/c1ccc([N+](=O)[O-])o1,"inconclusive: 25.9 µM [inhibitor, single point]"
5,CCn1c(SCC(=O)Nc2ccccc2)nnc1-c1ccc(S(=O)(=O)N2CCOCC2)cc1,inactive
6,CN(C)S(=O)(=O)c1cccc(NC(=O)COc2ccccc2C(=O)NCc2ccccc2)c1,"inconclusive: 35.5 µM [inhibitor, single point]"
7,Cc1c(-n2cc(C(=O)c3cc(Cl)ccc3O)cc(C#N)c2=O)c(=O)n(-c2ccccc2)n1C,inactive
8,O=C(Nc1ccccc1)Nc1cc([N+](=O)[O-])ccc1F,"inconclusive: 13 µM [activator, partial curve, poor fit]"
9,Cc1nc(N)sc1-c1csc(Nc2ccccc2)n1,inactive
10,Fc1cccc(NC(=S)N2CCn3cccc3C2c2cccnc2)c1 (stereo not drawn),"inconclusive: 8.91 µM [inhibitor, partial curve, poor fit]"
11,Cc1cc2c(cc(C(=O)OC(C(=O)NCc3ccco3)C(C)C)n2C)o1 (stereo not drawn),"inconclusive: 16.4 µM [inhibitor, single point]"
12,C/C(=N\NC(=S)NC1CCCCC1)c1c(F)cccc1F,"inconclusive: 12.6 µM [inhibitor, partial curve, poor fit]"
13,CCOc1ccc(/C=C/C(=O)c2c(O)cc(C)oc2=O)cc1,inactive
14,CCN(CC)C(=O)c1sc2c(c1C)c(=O)n(Cc1ccccc1)c(=O)n2Cc1c(C)cc(C)cc1C,"inconclusive: 35.5 µM [inhibitor, single point]"
15,O=[N+]([O-])c1cc(Cl)cc(C2=NCCN2)c1,"inconclusive: 29.1 µM [inhibitor, single point]"
16,COc1cc(NC(=O)c2noc3c2CC(C(C)(C)C)CC3)cc(OC)c1OC (stereo not drawn),inactive
17,CC(=O)Nc1ccc(-c2csc(Nc3cccc(C)n3)n2)cc1,"inconclusive: 15.8 µM [inhibitor, partial curve, poor fit]"
18,CCCCCN(C(=O)NC(=O)Nc1ccccc1OC)S(C)(=O)=O,"inconclusive: 16.4 µM [inhibitor, single point]"
19,N/C(=N\O)c1ccccc1-n1cccc1,inactive
20,C=CCOc1nc(-c2ccncc2)nc2ccccc12,inactive
21,CCC(Oc1ccccc1)C(=O)Nc1ccc(-c2nnc(-c3ccco3)o2)cc1 (stereo not drawn),"inconclusive: 20.6 µM [inhibitor, single point]"

row,Structure (SMILES),Potency
1,CCOc1ccc(-c2cc(CCCC(=O)NCCc3ccc(SC)cc3)no2)cc1,"inconclusive: 7.08 µM [inhibitor, full curve, poor fit]"
2,COc1ccc(OCC(=O)N2CCN(C(=O)c3cccc(OC)c3OC)CC2)cc1,"inconclusive: 35.5 µM [activator, single point]"
3,Cc1ccc(NC(=O)CSc2nc3ccccc3c(=O)[nH]2)cc1[N+](=O)[O-],"inconclusive: 1.26 µM [activator, single point]"
4,CCCOc1ccc(C(=O)Nc2ccc(NC(=O)c3ccc(Br)cc3)cc2)cc1,"inconclusive: 2 µM [inhibitor, single point]"
5,COc1cccc(/C=N/NC(=O)c2ccc([N+](=O)[O-])cc2Cl)c1O,active: 14.6 µM
6,Cc1cccc(Nc2nnc(-c3ccc(C)c(S(=O)(=O)N4CCOCC4)c3)c3ccccc23)c1,"inconclusive: 39.8 µM [inhibitor, partial curve, poor fit]"
7,COc1ccc(C(C(=O)NC2CCCCC2)N(C(=O)c2ccccn2)c2cccnc2)cc1 (stereo not drawn),inactive
8,COC(=O)C1=C(C(=O)OC)SC2(S1)C(C(=O)OC)=C(C(=O)OC)Sc1c2ssc1=O,active: 11.2 µM
9,COC(=O)c1sc2cccc(F)c2c1S(=O)(=O)NCc1ccccc1Cl,"inconclusive: 11.2 µM [activator, single point]"
10,CC(C)(C)c1ccc(C(=O)N2CCCC2c2cccs2)cc1 (stereo not drawn),"inconclusive: 12.6 µM [inhibitor, partial curve, poor fit]"
11,Cc1cnc(NC(=O)c2ccc(OCC3CCCO3)cc2)s1 (stereo not drawn),active: 1.78 µM
12,COc1ccc(NC(=O)Cc2coc3cc(C)c(C(C)C)cc23)cc1S(=O)(=O)N1CCOCC1,"inconclusive: 15.8 µM [inhibitor, partial curve, poor fit]"
13,COc1ccc(/C=N/NC(=O)c2ccn[nH]2)cc1COc1ccc([N+](=O)[O-])c(C)c1,"inconclusive: 20 µM [inhibitor, single point]"
14,CCOc1ccc(S(=O)(=O)Nc2ccc3c(c2)CCCN3S(=O)(=O)c2ccc(C)cc2)cc1,"inconclusive: 12.6 µM [inhibitor, partial curve, poor fit]"
15,Cc1ncc(CN2CCN(Cc3ccc(F)cc3)C(CCO)C2)s1 (stereo not drawn),"inconclusive: 6.31 µM [inhibitor, single point]"
16,CCN(c1ccccc1)S(=O)(=O)c1cc(C(=O)NCC(c2ccco2)N2CCCCC2)ccc1C (stereo not drawn),"inconclusive: 25.1 µM [inhibitor, single point]"
17,COc1cc(C(=O)NCCC(=O)NC2CCCCCCC2)cc(OC)c1OC,"inconclusive: 1.16 µM [inhibitor, full curve, poor fit]"
18,C[C@H](NC(=O)Nc1cccc(C(F)(F)F)c1)C(=O)O,"inconclusive: 32.6 µM [activator, partial curve, poor fit]"
19,Cn1ncc(Br)c1C(=O)OCC(=O)Nc1nc(-c2ccccc2)cs1,inactive
20,N#Cc1c(SCC(N)=O)nc2c(c1-c1ccc(O)cc1)CCCC2,"inconclusive: 4.11 µM [inhibitor, partial curve, poor fit]"
21,CCOc1ccccc1CNC(=O)CCCn1c(=O)c2cccn2c2ccc(F)cc21,inactive

# As entered above.
# In Potency, CCOc1ccccc1CNC(=O)CCCn1c(=O)c2cccn2c2ccc(F)cc21 reads inactive
# In Potency, CCN(c1ccccc1)S(=O)(=O)c1cc(C(=O)NCC(c2ccco2)N2CCCCC2)ccc1C (stereo not drawn) reads inconclusive: 25.1 µM [inhibitor, single point]
# In Potency, Cc1ncc(CN2CCN(Cc3ccc(F)cc3)C(CCO)C2)s1 (stereo not drawn) reads inconclusive: 6.31 µM [inhibitor, single point]
# In Potency, Cc1cccc(Nc2nnc(-c3ccc(C)c(S(=O)(=O)N4CCOCC4)c3)c3ccccc23)c1 reads inconclusive: 39.8 µM [inhibitor, partial curve, poor fit]

# Next part

row,Structure (SMILES),Potency
1,Cc1cccc(N2CCN(Cc3oc(CO)cc(=O)c3O)CC2)c1C,"inconclusive: 5.62 µM [inhibitor, partial curve, poor fit]"
2,CC(C)=CCc1c(C)nc2ccccc2c1C(=O)O,inactive
3,COCc1cc(/C=N\NC(=O)Cc2ccc(OC)cc2)ccc1OC,"inconclusive: 25.9 µM [inhibitor, partial curve, poor fit]"
4,O=C(c1ccccc1)c1ccc2n1CCC2C(=O)O (stereo not drawn),"inconclusive: 11.6 µM [activator, partial curve]"
5,Cc1nc(N/C(N)=N/S(=O)(=O)c2ccc([N+](=O)[O-])cc2)nc2ccccc12,"inconclusive: 14.1 µM [inhibitor, single point]"
6,COc1ccc(C(=O)O/N=C/c2c(C(F)(F)F)nn(C)c2SCc2ccccc2Cl)cc1,"inconclusive: 13 µM [inhibitor, partial curve, poor fit]"
7,COc1cc(C(=O)Oc2ccccc2/C=N/NC(=O)c2ccc(Cl)cc2Cl)cc(OC)c1OC,"inconclusive: 22.4 µM [inhibitor, single point]"
8,COc1cc(NC(=O)CN2C(=O)C(c3ccc(C)cc3)=NC23CCCCCC3)cc(OC)c1,inactive
9,CC1CCCN(S(=O)(=O)c2ccc(C(=O)Nc3ccccc3-c3nc4ccccc4[nH]3)cc2)C1 (stereo not drawn),inactive
10,Cc1onc(-c2ccccc2)c1C(=O)Nc1ccc(S(=O)(=O)NC(C)(C)C)cc1,"inconclusive: 7.08 µM [inhibitor, full curve, poor fit]"
11,CCCCN=C1SC(C(=O)Nc2sc3c(c2C(=O)OC)CCC3)C(N)=C1C(=O)N1CCOCC1 (stereo not drawn),"inconclusive: 3.55 µM [activator, full curve, poor fit]"
12,Cc1cccc(C)c1N(CC(=O)Nc1cc(Cl)ccc1Oc1ccccc1)S(C)(=O)=O,"inconclusive: 35.5 µM [inhibitor, single point]"
13,COc1ccc(CCN2C(=O)c3[nH]nc(-c4ccccc4O)c3C2c2ccc(C)cc2)cc1OC (stereo not drawn),active: 10 µM
14,COc1ccc(OC)c(NC(=O)CSc2nccn2-c2cc(C)cc(C)c2)c1,"inconclusive: 25.1 µM [inhibitor, single point]"
15,COC(=O)c1cnn(-c2cc(Oc3ccccc3)ncn2)c1N,"inconclusive: 35.5 µM [activator, single point]"
16,CCOC(=O)CSc1nc2cc(OC)ccc2cc1C#N,"inconclusive: 0.146 µM [activator, full curve, poor fit]"
17,C=CCOc1cccc(/C=N/NC(=O)C(=O)NCc2ccco2)c1,"inconclusive: 4.47 µM [inhibitor, full curve, poor fit]"
18,COC(=O)c1sc(S(=O)(=O)N2CCN(c3ccc(OC)cc3)CC2)c(C(=O)OC)c1C,"inconclusive: 31.6 µM [inhibitor, partial curve, poor fit]"
19,Cc1ccccc1-n1ncc2c1CC(C)(C)CC2NC(=O)CCN1Cc2ccccc2C1=O (stereo not drawn),"inconclusive: 10 µM [inhibitor, partial curve, poor fit]"
20,CCN(CC)S(=O)(=O)c1ccc(O)c(NC(=O)c2cc(-c3cc(OC)c(OC)c(OC)c3)nc3ccccc23)c1,"inconclusive: 12.6 µM [inhibitor, single point]"
21,Cc1ccc(OCCCCN2CCc3ccccc3C2)c(C)c1,"inconclusive: 35.5 µM [inhibitor, single point]"
